Measured data: PubChem BioAssay AID493246 (Drosophila RNAi Screening Center, 2011)
Aim: 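Identify essential fly genes by loss of cell viability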 (primary screen). System: Drosophila Kc and S2R+ cells. Reagent: long dsRNA against Drosophila genes. Measurement: 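Raw, unnormalised count of remaining cells in each well; per-plate z-scores of cell number underlie the calls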. Direction: Kc cell number and S2R+ cell number: higher = more cells remaining. Hit rule: 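Counted as a hit if cell number falls by a z-score of at least 3 within its plate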.
In all, the deposit lists about 21,000 reagents; shown is a random part of those with a known target gene and a result. Of all reagents, 429 (2%) are marked active. 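Values are raw and not normalised between plates; calls rest on per-plate z-scores that were not deposited.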 A plus sign joins genes that one reagent is predicted to hit. The record does not give: the amount of reagent, the time to read-out.

| gene | PubChem SID | Kc cell number, rep 1 | Kc cell number, rep 2 | S2R+ cell number, rep 1 | S2R+ cell number, rep 2 | Call |
| --- | --- | --- | --- | --- | --- | --- |
| CG40282 (retired record) | SID104187606 | 1.31e6 | 1.30e6 | 9.09e5 | 1.08e6 | inactive |
| CG12107 | SID104185894 | 1.06e6 | 1.19e6 | 7.68e5 | 6.76e5 | inactive |
| PGRP-SD (Peptidoglycan recognition protein SD) | SID104190648 | 1.28e6 | 1.35e6 | 1.15e6 | 1.19e6 | inactive |
| mRpL36 (mitochondrial ribosomal protein L36) | SID104190129 | 1.40e6 | 1.35e6 | 1.09e6 | 1.18e6 | inactive |
| TpnC73F (Troponin C at 73F) | SID104191099 | 1.68e6 | 1.82e6 | 1.26e6 | 1.32e6 | inactive |
| CG10749 | SID104189590 | 1.39e6 | 1.32e6 | 1.30e6 | 1.40e6 | inactive |
| Plc21C (Phospholipase C at 21C) | SID104180565 | 1.37e6 | 1.52e6 | 1.09e6 | 1.02e6 | inactive |
| CG18139 (retired record) + Hmx | SID104195099 | 1.46e6 | 1.59e6 | 8.97e5 | 9.70e5 | inactive |
| atos (atossa) | SID104187110 | 1.56e6 | 1.59e6 | 1.27e6 | 1.40e6 | inactive |
| CG7692 | SID104190694 | 1.61e6 | 1.47e6 | 1.21e6 | 1.30e6 | inactive |
| CG31342 | SID104195141 | 1.73e6 | 1.87e6 | 1.49e6 | 1.55e6 | inactive |
| CG31342 | SID104196038 | 1.42e6 | 1.31e6 | 9.93e5 | 1.04e6 | inactive |
| CG33722 + CG18749 | SID104192466 | 1.44e6 | 1.41e6 | 1.10e6 | 1.24e6 | inactive |
| CG33722 + CG18749 | SID104195178 | 1.55e6 | 1.55e6 | 1.35e6 | 1.51e6 | inactive |
| CG16998 | SID104190027 | 1.41e6 | 1.35e6 | 1.22e6 | 1.21e6 | inactive |
| fusl (fuseless) | SID104182143 | 1.21e6 | 1.26e6 | 6.04e5 | 7.31e5 | inactive |
| Sgs1 (Salivary gland secretion 1) | SID104180579 | 1.64e6 | 1.62e6 | 1.27e6 | 1.38e6 | inactive |
| Sgs1 (Salivary gland secretion 1) | SID104180640 | 1.77e6 | 1.75e6 | 1.05e6 | 1.26e6 | inactive |
| CG1316 | SID104188096 | 1.59e6 | 1.49e6 | 1.12e6 | 1.32e6 | inactive |
| CG7432 | SID104196035 | 1.45e6 | 1.44e6 | 1.18e6 | 1.26e6 | inactive |
| DIP-zeta (Dpr-interacting protein zeta) | SID104181995 | 1.58e6 | 1.63e6 | 1.16e6 | 1.31e6 | inactive |
| DIP-zeta (Dpr-interacting protein zeta) | SID104181996 | 1.52e6 | 1.57e6 | 1.20e6 | 1.28e6 | inactive |
| DIP-zeta (Dpr-interacting protein zeta) | SID104181997 | 1.46e6 | 1.56e6 | 1.17e6 | 1.29e6 | inactive |
| CR11023 (pseudo) | SID104180094 | 1.52e6 | 1.54e6 | 1.01e6 | 1.18e6 | inactive |
| CG17681 | SID104182424 | 1.62e6 | 1.67e6 | 1.33e6 | 1.52e6 | inactive |
| tyf (twenty-four) | SID104198174 | 1.48e6 | 1.44e6 | 1.04e6 | 1.14e6 | inactive |
| AANATL3 (Arylalkylamine N-acetyltransferase-like 3) | SID104181881 | 1.52e6 | 1.65e6 | 1.31e6 | 3.53e5 | inactive |
| CG4829 | SID104199712 | 1.56e6 | 1.63e6 | 1.00e6 | 1.20e6 | inactive |
| ptc (patched) | SID104184909 | 1.35e6 | 1.43e6 | 9.94e5 | 1.09e6 | inactive |
| ptc (patched) | SID104187461 | 1.75e6 | 1.75e6 | 1.30e6 | 1.45e6 | inactive |
| ND-51 (NADH dehydrogenase (ubiquinone) 51 kDa subunit) | SID104182937 | 1.10e6 | 1.19e6 | 4.00e5 | 6.34e5 | inactive |
| CG31272 | SID104195850 | 1.61e6 | 1.82e6 | 1.20e6 | 1.31e6 | inactive |
| CG17929 | SID104195083 | 1.30e6 | 1.47e6 | 1.11e6 | 1.17e6 | inactive |
| Mco3 (Multicopper oxidase 3) | SID104195718 | 1.34e6 | 1.48e6 | 9.81e5 | 1.02e6 | inactive |
| CG7798 | SID104186839 | 1.58e6 | 1.61e6 | 1.20e6 | 1.30e6 | inactive |
| CG14402 | SID104182178 | 1.51e6 | 1.63e6 | 1.26e6 | 3.81e5 | inactive |
| Syx13 (Syntaxin 13) | SID104189628 | 1.17e6 | 1.21e6 | 1.21e6 | 1.29e6 | inactive |
| sif (still life) | SID104188551 | 1.54e6 | 1.47e6 | 1.02e6 | 1.20e6 | inactive |
| sif (still life) | SID104191187 | 1.57e6 | 1.93e6 | 1.19e6 | 1.25e6 | inactive |
| Gyc76C + CG42637 | SID104190972 | 1.55e6 | 1.61e6 | 1.22e6 | 1.24e6 | inactive |

A portion of the results above:
| gene | PubChem SID | Kc cell number, rep 1 | Kc cell number, rep 2 | S2R+ cell number, rep 1 | S2R+ cell number, rep 2 | Call |
| --- | --- | --- | --- | --- | --- | --- |
| DIP-zeta (Dpr-interacting protein zeta) | SID104181996 | 1.52e6 | 1.57e6 | 1.20e6 | 1.28e6 | inactive |
| DIP-zeta (Dpr-interacting protein zeta) | SID104181997 | 1.46e6 | 1.56e6 | 1.17e6 | 1.29e6 | inactive |
